Laboratory results published in the supplement of paper PMC10735217.
Structures can show the parent of a compound that is named as a salt. Some of the results follow. This data set is noisy: repeats of one test often differ as much as different tests do.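 Human kidney-derived cells stably carry a construct in which eight TEAD-binding elements drive luciferase, measured by luminescence in a drug-repurposing library screen. A hit is any compound whose signal exceeds the plate mean by more than five robust Z scores.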

System: HEK293A TEAD-LUC reporter
Assay: TEAD-luciferase reporter activity (YAP activation), robust Z score vs plate; higher = stronger YAP/TEAD activation
Settings: 24 h

| Compound | TEAD-luciferase reporter activity (compound concentration: 200 nM) | TEAD-luciferase reporter activity (compound concentration: 2 uM) | TEAD-luciferase reporter activity (compound concentration: 10 uM) |
| --- | --- | --- | --- |
| CCNC1(C(N)=O)CCN(c2ncnc3c2nc(-c2ccccc2Cl)n3-c2ccc(Cl)cc2)CC1 [Otenabant hydrochloride] | inactive: 3.4 | inactive: -0.273 | inactive: 3.81 |
| CC(C)NCC(O)COC1c2ccccc2C(=O)N1c1ccccc1 (configuration not stated) [nofecainide] | inactive: -2.11 | inactive: -0.792 | inactive: 0.185 |
| OCc1ccccc1/C=C/Cc1cc2c(cc1O)CCO2 | inactive: -0.304 | inactive: -1.42 | inactive: 0.706 |
| COc1cccc(OC)c1-c1cc(C(=O)NC2(C(=O)O)C3CC4CC(C3)CC2C4)nn1-c1ccnc2cc(Cl)ccc12 (configuration not stated) [Meclinertant] | inactive: -2.53 | inactive: -1.56 | inactive: 1.28 |
| CC(C)C(N)C(=O)NC(Cc1ccc(O)cc1)C(=O)O (configuration not stated) [Val-Tyr sardine peptidase] | inactive: -1.26 | inactive: 0.264 | inactive: 0.62 |
| CC(O)(C(N)=O)c1ccccc1 (configuration not stated) | inactive: -1.23 | inactive: -0.623 | inactive: -0.313 |
| CCc1cccc2sc(Sc3ccc4c(c3)CC[C@H]3N(C)C(=O)CC[C@]43C)nc12 [Izonsteride] | inactive: -1.03 | inactive: 1.32 | inactive: 2.1 |
| NCC(=O)NC1CC2(CCN(C(=O)Cc3ccc(O)cc3)CC2)c2ccccc21 (configuration not stated) | inactive: -1.66 | – | inactive: 0.528 |
| CCN(Cc1ccc(OC)c(OC2CCCC2)c1)c1ncnc2[nH]c(C(C)C)nc12 | inactive: -0.719 | inactive: 0.73 | inactive: 0.572 |
| CCN(CC)C(=O)COC(=O)/C=C/C(=O)OC | inactive: 0.665 | inactive: 0.162 | inactive: -1.34 |
| O=C(O)[C@@H]1C[C@@H](O)CN1 [L-Hydroxyproline] | inactive: -1.84 | inactive: -2.57 | inactive: -1.3 |
| Clc1ccc2nsnc2c1NC1=NCCN1 [tizanidine hydrochloride] | – | inactive: 0.107 | – |
| Clc1ccc2nsnc2c1NC1=NCCN1 | inactive: -0.441 | – | inactive: -1.35 |
| CC1(C)CCSc2ccc(C#Cc3ccc(C(=O)O)cn3)cc21 [Tazarotenic acid] | inactive: -0.86 | inactive: 2.98 | inactive: -2.89 |
| Cc1cccc(Nc2ccccc2C(=O)O)c1C | inactive: -0.144 | – | inactive: 1.08 |
| Cc1cccc(Nc2ccccc2C(=O)O)c1C [mefenamic acid, vaginal] | – | inactive: -1.34 | – |
| Nc1nc(O)nc2c1ncn2[C@@H]1O[C@H](CO)[C@@H](O)[C@H]1O | inactive: -1.22 | inactive: -1.47 | inactive: 0.679 |
| CCOC(=O)C1=C(C)N(CCN2CCOCC2)C(C)=C(C(=O)OCC)C1c1ccccc1C(F)(F)F [flordipine] | inactive: -0.965 | inactive: 0.41 | inactive: -1.11 |
| Clc1ccc(CO/N=C(\Cn2ccnc2)c2ccc(Cl)cc2Cl)c(Cl)c1 [oxiconazole] | – | inactive: 0.624 | – |
| Clc1ccc(CO/N=C(\Cn2ccnc2)c2ccc(Cl)cc2Cl)c(Cl)c1 | inactive: 0.621 | – | inactive: 2.32 |

Looked up one by one from above:

| Compound | TEAD-luciferase reporter activity (compound concentration: 200 nM) | TEAD-luciferase reporter activity (compound concentration: 2 uM) | TEAD-luciferase reporter activity (compound concentration: 10 uM) |
| --- | --- | --- | --- |
| OCc1ccccc1/C=C/Cc1cc2c(cc1O)CCO2 | inactive: -0.304 | inactive: -1.42 | inactive: 0.706 |
| O=C(O)[C@@H]1C[C@@H](O)CN1 [L-Hydroxyproline] | inactive: -1.84 | inactive: -2.57 | inactive: -1.3 |
| CC(C)C(N)C(=O)NC(Cc1ccc(O)cc1)C(=O)O (configuration not stated) [Val-Tyr sardine peptidase] | inactive: -1.26 | inactive: 0.264 | inactive: 0.62 |

Going on with the list:

| Compound | TEAD-luciferase reporter activity (compound concentration: 200 nM) | TEAD-luciferase reporter activity (compound concentration: 2 uM) | TEAD-luciferase reporter activity (compound concentration: 10 uM) |
| --- | --- | --- | --- |
| CCCCC[C@H](O)/C=C/[C@H]1[C@H](O)CC(=O)[C@@H]1CCCCCCCO | inactive: -0.974 | inactive: -0.665 | inactive: -0.702 |
| O=c1oc2c(O)c(O)cc3c(=O)oc4c(O)c(O)cc1c4c23 | inactive: 0.756 | inactive: -2.03 | inactive: -1.29 |
| O=C(O)c1cc(O)c2c3nc4ccccc4oc-3cc(=O)c2n1 [Pyrphenoxone] | inactive: 0.553 | inactive: -1.05 | inactive: 1.92 |
| CNCC(O)c1ccc(O)c(O)c1 (racemic) [(+/-)-Epinephrine hydrochloride329-63-5] | inactive: -2.21 | – | inactive: -0.455 |
| CC1(C2OCCO2)C=C(N2CCCC2=O)c2cc([N+](=O)[O-])ccc2O1 (configuration not stated) | inactive: -0.314 | inactive: -0.812 | inactive: 0.864 |
| NC[C@@](O)(c1ccc(Cl)cc1)c1ccc(-c2cn[nH]c2)cc1 | inactive: 1.97 | active: 12.6 | active: 6.42 |
| CC1(c2ccncc2)CCC(=O)NC1=O (configuration not stated) | inactive: -0.175 | inactive: -2.04 | inactive: 4.46 |
| COc1ccccc1OCC1CNC(=O)O1 (configuration not stated) | inactive: -0.883 | inactive: -1.35 | inactive: -0.429 |
| CC(=O)c1cc(C(C)(C)C)c(O)c(C(C)(C)C)c1 | inactive: 0.166 | inactive: -0.247 | inactive: 2.56 |
| O=C(O)CC(NS(=O)(=O)c1ccc2ccccc2c1)C(=O)NCCc1ccccc1 (configuration not stated) | inactive: -1.4 | inactive: 0.392 | inactive: 1.08 |
| c1ccc(-c2nc(SCc3cccnc3)[nH]c2-c2ccccc2)cc1 | inactive: -0.371 | inactive: -1.16 | inactive: 0.56 |
| Cc1ccc(/C=C/C(=O)NC[C@@H]2CN(c3ccc(N4CCOCC4)c(F)c3)C(=O)O2)cc1 | inactive: 0.549 | inactive: -1.28 | inactive: -0.212 |
| N=C(N)Nc1ccc(C(=O)NCCC[C@H]2C(=O)N(CC(=O)O)CCN2C(=O)CNC(=O)c2ccc(NC(=N)N)cc2)cc1 | inactive: -1.77 | inactive: -0.904 | inactive: 2.79 |
| CCC(=O)[C@@]12OC(C)(C)O[C@@H]1C[C@H]1[C@@H]3CCC4=CC(=O)CC[C@]4(C)[C@H]3CC[C@@]12C | inactive: -0.569 | inactive: -0.469 | inactive: 2.38 |
| CCOC(=O)N(Cc1ccccc1)C1CC1 | inactive: -0.875 | inactive: 1.13 | inactive: 4.1 |
| O=C(O)CCC(=O)c1ccc(OCc2ccccc2)cc1 | inactive: -1.1 | inactive: -0.495 | inactive: -0.000701 |
| CCOC(=O)C1=C(C)NC(CN(C)CC(C)(C)NCC(O)COc2ccccc2OC)=C(C(=O)OCC)C1c1cccc([N+](=O)[O-])c1 (configuration not stated) | inactive: -0.543 | inactive: -0.963 | inactive: -0.139 |
| CCCCC(C)(O)C/C=C/[C@H]1[C@H](O)CC(=O)[C@@H]1CCCCCCC(=O)O (some centres not stated) | inactive: -1.81 | inactive: -1.53 | inactive: 1.97 |
| O=C(O)CN(CC(=O)O)c1ccccc1OCCOc1ccccc1N(CC(=O)O)CC(=O)O [BAPTA (DP-b99 metabolite)] | – | inactive: 0.999 | – |
| O=C(O)CN(CC(=O)O)c1ccccc1OCCOc1ccccc1N(CC(=O)O)CC(=O)O [DP-b99 metabolite] | inactive: 0.654 | – | active: 8.93 |

| Compound | TEAD-luciferase reporter activity (compound concentration: 200 nM) | TEAD-luciferase reporter activity (compound concentration: 2 uM) | TEAD-luciferase reporter activity (compound concentration: 10 uM) |
| --- | --- | --- | --- |
| CCn1cc(C(=O)O)c(=O)c2cnc(N3CCNCC3)nc21 [pipemidic acid] | – | inactive: 0.987 | – |
| CCn1cc(C(=O)O)c(=O)c2cnc(N3CCNCC3)nc21 | inactive: -0.0821 | – | inactive: 0.934 |
| COC(=O)C1=C(C)NC(C)=C(c2nc(CN(C)Cc3ccccc3)no2)C1c1cccc([N+](=O)[O-])c1 (configuration not stated) | inactive: -1.75 | inactive: -0.446 | inactive: -1.21 |
| C[C@]12CCC(=O)C=C1CC[C@@H]1[C@@H]2CC[C@@]2(C)[C@H]1CC[C@]2(O)C(=O)COP(=O)([O-])[O-] | inactive: -0.451 | – | inactive: 1.29 |
| O=C1NCc2ccccc2CC12CCCCN2CC1CCCC1 (configuration not stated) | inactive: -1.55 | – | inactive: 4.08 |
| COc1cccc(-c2ccc(C(=O)NCCNC(=O)c3ccccn3)cc2)c1 | inactive: 3.24 | – | inactive: 0.76 |
| CC1=C(C(=O)O)N2C(=O)C(NC(=O)C(N)c3ccc(O)cc3)C2SC1 (configuration not stated) [cefadroxil] | inactive: -1.34 | inactive: 0.949 | inactive: -1.51 |
| C[C@@H]1C(N)CN1c1nc2c(cc1F)c(=O)c(C(=O)O)cn2C1CC1 (some centres not stated) | inactive: -0.41 | inactive: -0.222 | inactive: -0.0002 |
| COc1cccc(CN2CCC3(CC2)NC(=O)c2ccccc2O3)c1 | inactive: -0.222 | – | inactive: 0.46 |
| CC(=O)NCC(=O)N1Cc2ccccc2CC2(CCCN2CC2CCCC2)C1 (configuration not stated) | inactive: -2.81 | – | inactive: -0.0219 |
| COc1ccc2c(c1)c1c3n2CCN(C)C3=NCC1 | inactive: -3.07 | inactive: 1.9 | inactive: 0.991 |
| NCC1OB(O)c2ccccc21 (configuration not stated) | inactive: -0.809 | inactive: -0.92 | inactive: 0.872 |
| COc1ccc(Sc2nc(N)nc3c2ncn3CCOCP(=O)(OCC(F)(F)F)OCC(F)(F)F)cc1 | inactive: -0.086 | inactive: -0.836 | inactive: -1 |
| CCOP(=O)(Cc1ccc(C(=O)Nc2ccc(Br)cc2C#N)cc1)OCC [Ibrolipim] | inactive: -0.792 | inactive: -0.189 | inactive: 0.588 |
| COc1cc(/C=C2\CCC/C(=C\c3ccc(O)c(OC)c3)C2=O)ccc1O [Cyclovalone] | active: 6.4 | inactive: 0.0824 | inactive: 0.667 |
| O=C(O)CCC(CCCS)C(=O)O (configuration not stated) | inactive: 0.443 | inactive: -0.479 | inactive: -1.42 |
| CCCCCCCCCCCCCC(=O)OC(C)C [Isopropyl myristate] | inactive: -1.85 | inactive: -0.369 | inactive: -0.985 |
| C[C@@H]1C/C=C/C=C/C=C/C=C/[C@H](O[C@@H]2O[C@H](C)[C@@H](O)[C@H](N)[C@@H]2O)C[C@@H]2O[C@](O)(C[C@@H](O)C[C@H]3O[C@@H]3/C=C/C(=O)O1)C[C@H](O)[C@H]2C(=O)O [Natamycin] | inactive: -0.4 | inactive: 0.951 | inactive: -0.969 |
